Test results taken from the supplement of paper PMC3334620.
In all, about 33,000 sequences were measured (“E-score (-0.5 to 0.5)”: median about -0.0034, highest 2% from about 0.25 on). Some of the results follow.

Target: T1, Yap3 (UniProt P38749)
T1 sequence: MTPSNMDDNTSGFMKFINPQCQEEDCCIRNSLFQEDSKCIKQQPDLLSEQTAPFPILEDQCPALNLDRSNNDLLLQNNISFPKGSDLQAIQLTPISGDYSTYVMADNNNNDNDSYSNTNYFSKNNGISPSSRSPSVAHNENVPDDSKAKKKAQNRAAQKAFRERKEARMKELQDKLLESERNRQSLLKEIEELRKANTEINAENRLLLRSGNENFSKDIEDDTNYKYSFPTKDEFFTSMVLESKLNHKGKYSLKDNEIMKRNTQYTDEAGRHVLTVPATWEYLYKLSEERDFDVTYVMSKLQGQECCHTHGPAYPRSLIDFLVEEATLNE
Test: PBM E-score (8-mer binding enrichment) (E-score (-0.5 to 0.5)); higher = stronger / more preferred TF binding
Settings: protein concentration: 100 nM; construct: GST-full length
In short: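 GST-tagged yeast TFs (full-length or DNA-binding domain) were made by PURExpress in vitro transcription/translation and applied at about 100-200 nM to universal all-10-mer Agilent arrays. The arrays were made double-stranded by primer extension, on fresh or once-stripped slides. Bound protein was detected with fluorescent anti-GST, and scans were normalised with masliner. Each ungapped eight-base word, pooled with its reverse complement, received an E-score (modified Wilcoxon-Mann-Whitney statistic) from the Universal PBM Analysis Suite.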

Sequence | PBM E-score
CCAAAGAC | -0.00049
AAGCGTAG | -0.137
AATGAGAT | 0.266
ATAACCAG | 0.157
ATCGCCAG | -0.0382
CGTGTTTC | -0.0543
TCGCCGAA | 0.0659
GTAGATAA | 0.245
ATATCAGA | 0.138
TCCTCCGA | -0.1
ATTCTCTA | 0.162
CCAGATGC | -0.125
GACGCCCC | -0.263
TAAGTCCA | 0.00179
ACACAAGT | 0.0806
CCACACAG | -0.0391
ATACATAA | 0.285
GCCATATA | 0.164
CGCAAGAC | -0.0889
AGGAGACG | -0.195
GCGGGATA | -0.0795
CCTGTACA | -0.126
ACGGAGGG | -0.139
AGCATGGC | -0.156
CATGTGCA | -0.275

Rewritten tab-delimited: entries from further up
Sequence	PBM E-score
AATGAGAT	0.266
CATGTGCA	-0.275

The list goes on:

Sequence | PBM E-score
AGTTACCA | 0.111
CCAATTCA | 0.197
CTTAAGTA | 0.131
GGTAAATA | 0.111
GTTACGTA | 0.182
CATAGAAA | 0.268
ATGCAGGA | -0.0704
GCTAGACC | -0.343
CAGCGACG | -0.0734
AGCTCCCT | -0.169
GCTCTGGA | 0.15
AGCGATCC | -0.123
AACGATGT | 0.12
CAGGCATG | -0.0522
CCTCGGAG | -0.0429
AGCCAGAA | -0.0109
TCAAGGCA | -0.115
GCAATGGC | -0.121
AGACAGTC | -0.238
AACTGAAG | 0.0554
CCAGGAAC | -0.209
ATGCGGGG | -0.197
CTCATTTA | 0.133
CAATATTC | 0.126
AACGGATT | 0.233

Sequence | PBM E-score
CAGGATAA | 0.173
AGGTCCAA | -0.204
AGCAATCC | -0.213
ACCGATAG | 0.00043
CCGGACCG | -0.254
TACAAAGA | 0.139
GCTTGAAC | 0.17
CATCAGAG | -0.0207
CCGGCGGA | -0.0725
TACTGTGA | 0.23
CTCGGGAC | -0.156
ACGGTGCA | -0.116
ACTGGGCG | -0.225
CAAGTGCC | -0.122
ACGTTGTA | -0.0225
GGGACACC | -0.243
GGTAATGA | 0.13
GGCTGTAC | -0.209
ATCGACCC | 0.0444
GGGCTGCA | -0.195
AAGGATGG | -0.0686
AAATGTTA | 0.123
CAAATTAG | 0.122
GGGTGCAC | -0.135
CCAGATCA | 0.179

Sequence | PBM E-score
CCTGGAAC | -0.0541
ATAATACC | 0.226
GTCTCTCA | -0.0895
GATGCGGA | -0.197
CGTCCGCC | -0.213
CCTGGCCA | -0.00442
GCTAGAAC | -0.0566
ATCGTCGA | -0.0348
AGGTCAAC | -0.0927
TAATAAAA | 0.324
GCCAAAAC | -0.0294
CACACCCG | -0.107
CTCAGCCA | -0.0977
ACGATCCT | 0.0248
AACGCTAT | 0.102
CAGGGCCA | -0.297
CTGATTTC | -0.0175
TAGTCGCA | -0.0688
ACTGTCCC | 0.11
AAGAGGGC | -0.0988
CGAATGCG | 0.112
ACAGGACC | -0.0617
CCTCCCGC | -0.183
CGAGAACG | -0.0191
ATGTCGCG | 0.0543

Sequence | PBM E-score
AGGGATCC | -0.28
AGCACGAG | -0.0257
GGTATCAA | 0.0338
GAAGAACC | -0.0243
AATGAATT | 0.214
ACTTGTTC | 0.0206
GCGAGACC | -0.134
GCTGACCA | 0.026
AGTCTGCG | -0.25
GAACGGGC | -0.164
CCTCCTCG | -0.192
GAAGCGTC | -0.136
CAGGTACC | -0.141
AGACCGAT | -0.131
AGCATCCC | -0.174
CACATGGG | -0.0299
GTTGGGGA | -0.168
AGTGGGTA | 0.0821
TCTCCGCA | -0.189
TATGGGAA | 0.0612
AAAAACGA | 0.256
ACTACAAC | 0.182
CACGCAGA | -0.0244
GTATGAGA | 0.158
CATGCGGC | 0.00023

Part of the list above in another layout:
TCCTCCGA
  PBM E-score = -0.1
AACTGAAG
  PBM E-score = 0.0554
AAATGTTA
  PBM E-score = 0.123
TAATAAAA
  PBM E-score = 0.324

Following part

Sequence | PBM E-score
ATAGCAAA | 0.0477
GCAAGCCC | -0.0469
CCAAGCGA | 0.0232
AAGCGCGG | -0.00666
ATGAGGAA | 0.122
CAAGTTGG | 0.106
ATCCCATA | -0.106
CCCGACAC | -0.222
ATACTGCG | -0.0971
AGTCACAA | 0.208
CATGGTCC | -0.102
ATTGTCGG | 0.0578
AACCTTTC | 0.0269
GCGTGAGA | 0.0548
ATTTTTGC | 0.123
CTAGAGCC | -0.212
CCACAACC | 0.0507
AACCAGCA | -0.021
AAGAGAGT | 0.0295
CGGAAAAG | 0.0315
CAAGATAG | -0.0364
GGTACAGA | -0.0117
GATGCATA | -0.00781
ACTGGTGA | -0.0583
CCCCCCCA | -0.394

Sequence | PBM E-score
CCTTAATA | 0.042
CACTCTCC | -0.021
GACCGCGA | -0.171
CCACTCAC | 0.0262
GCGATTAC | 0.0199
CATCCTGC | -0.0711
GCTAGAAA | 0.193
CCAGACCA | -0.0634
CTCACACA | -0.00237
GAATGTCA | -0.0215
AGAATTAC | 0.195
AAGAATTG | 0.171
GATGCGCC | 0.0212
CAACTGGA | -0.097
TGAGCCAA | 0.0518
GACACACC | 0.155
CTATGCAC | -0.0447
ACGCTAGC | -0.251
ATGGGAGC | 0.00648
TAGCCATA | -0.0876
ATCTCCCC | -0.205
AGTGCATA | -0.0677

Quoted at random: 5 records from the list.
Sequence | PBM E-score
GTATGAGA | 0.158
ATGGGAGC | 0.00648
AGGTCAAC | -0.0927
CCGGACCG | -0.254
ATGCAGGA | -0.0704
